Laboratory results reported in the supplement of paper PMC12823440, “Inhibitors supercharge kinase turnover through native proteolytic circuits” (Nature, 2025).
Structures can show the parent of a compound that is named as a salt. The list shows a part of the results. Hit calls seldom repeat between salt and free forms of one compound.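 In K562 cells expressing nanoluciferase-fused kinases, luminescence was recorded at 4 h intervals between 2 and 18 h, normalized as percent of control with DMSO at 100% and a positive control at 0%. A significant (2 sigma) signal drop marks a time point as decreased. The authors' rule for a hit is not shown and takes in more than the number of time points.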

Biological target: SRC (UniProt P12931)
Assay: number of time points (of 5) at which kinase-Nluc abundance scored as decreased, DMSO-normalised (count); higher = more persistent destabilization
Settings: K562; 2-18 h

Question: With `C[C@H]1Cc2ccccc2N1C(=O)Cc1nc(N2CCOCC2)cc(=O)[nH]1` (2.5 µM) as the compound, how does the “number of time points” value read?
Answer: 0

Question: How did the “number of time points” value turn out when `CC(C)c1cc(/C=C(\C#N)C(N)=O)cc(C(C)C)c1O` (10 µM) was run?
Answer: 0

Question: Which “number of time points” value does the source give for `COc1c(C)c(C(=O)c2ccc(N)c(C(=O)O)c2)n2ccccc12` (10 µM) here?
Answer: 0

Question: Which “number of time points” value does the source give for `C[C@@H]1CCc2ncc(F)cc2[C@H]2CCCN2c2ccn3ncc(c3n2)C(=O)N1` [Selitrectinib] (10 µM) here?
Answer: 0

Question: `CCN(C)C(=O)c1ccc2c(C(=Nc3ccc(CN4CCCCC4)cc3)c3ccccc3)c(O)[nH]c2c1` (2.5 µM) was tested. Which “number of time points” value did it give?
Answer: 0

Question: `O=C(CO)N1CCC(c2n[nH]c(-c3ccc(Cl)cc3)c2-c2ccncn2)CC1` (10 µM) was tested. Which “number of time points” value did it give?
Answer: 0

Question: For `C[C@@H]1COCCN1c1cc(C2([S@](C)(=N)=O)CC2)nc(-c2cc[nH]c3nccc2-3)n1` [Ceralasertib] (2.5 µM), which “number of time points” value is on record?
Answer: 0

Question: `CCOC(=O)c1c2c3c(cccc3[nH]c1=O)C(=O)c1ccccc1-2` (10 µM) was tested. Which “number of time points” value did it give?
Answer: 0

Question: Which “number of time points” value does the source give for `O=C(c1ccc(Nc2nccc(-c3cc4ccccc4s3)n2)cc1)N1CCC(N2CCCC2)CC1` (2.5 µM) here?
Answer: 0

Question: Which “number of time points” value does the source give for `Cc1ccc(-c2nn(C(C)(C)CNC(=O)c3ccncc3)c3ncnc(N)c23)cc1` (2.5 µM) here?
Answer: 0

Question: With `O=C(O)c1ccc(-c2c[nH]c3ncc(-c4ccccc4)cc23)cc1C1CCCC1` (2.5 µM) as the compound, how does the “number of time points” value read?
Answer: 0

Question: Which “number of time points” value does the source give for `CCOc1nc(Nc2ccc(C(=O)N3CCOCC3)cc2OC)nc2[nH]ccc12` [LRRK2 inhibitor 1] (2.5 µM) here?
Answer: 0

Question: How did the “number of time points” value turn out when `CN(CC(=O)N(Cc1ccc(C2CCCCC2)cc1)c1ccc(C(=O)O)c(O)c1)S(=O)(=O)c1c(F)c(F)c(F)c(F)c1F` (2.5 µM) was run?
Answer: 0

Question: How did the “number of time points” value turn out when `Nc1nc2cc(-c3ccc4ncc(C(=O)N5CCOCC5)n4c3)ccc2o1` [Serabelisib] (10 µM) was run?
Answer: 0

Question: Which “number of time points” value does the source give for `OCCN(CCO)c1ccc(C(c2ccc(Cl)cc2)c2ccc(N(CCO)CCO)cc2)cc1` (10 µM) here?
Answer: 0

Question: With `O=c1nc(N2CCOCC2)oc2c(-c3cccc4c3sc3ccccc34)cccc12` (10 µM) as the compound, how does the “number of time points” value read?
Answer: 0

Question: How did the “number of time points” value turn out when `c1ccc(-c2nn3c(c2-c2ccnc4cc(OCCN5CCOCC5)ccc24)CCC3)nc1` (10 µM) was run?
Answer: 0

Question: Which “number of time points” value does the source give for `O=C(Nc1ccc(Cl)c(Cl)c1)Nc1ccc2nnsc2c1` (10 µM) here?
Answer: 0

Question: How did the “number of time points” value turn out when `N#C/C(=C(/N)Sc1ccc(N)cc1)c1ccccc1C(F)(F)F` (10 µM) was run?
Answer: 0

Question: With `O=c1ccoc2cc(O)ccc12` [7-Hydroxy-4H-chromen-4-one] (10 µM) as the compound, how does the “number of time points” value read?
Answer: 0

Question: How did the “number of time points” value turn out when `COc1cc(C(=O)N2CCC(N3CCN(C)CC3)CC2)ccc1Nc1ncc2c(n1)N(C)c1ccccc1C(=O)N2C` (10 µM) was run?
Answer: 0

Question: Which “number of time points” value does the source give for `CC(=O)Nc1nc2ccc(-c3cnc(C)c(NC(=O)OC4CCCCC4)c3)cc2s1` (10 µM) here?
Answer: 0

Question: `O=C1NC(=O)C(c2cn(-c3ccccc3)nc2-c2ccc(F)cc2)N1` (centres undefined) (10 µM) was tested. Which “number of time points” value did it give?
Answer: 0

Question: For `CCCCNC(=N)NC(=N)N` [Buformin (hydrochloride)] (2.5 µM), which “number of time points” value is on record?
Answer: 0

Question: How did the “number of time points” value turn out when `C[C@H]1[C@H](OC(=O)CCC(=O)O)O[C@@H]2O[C@@]3(C)CC[C@H]4[C@H](C)CC[C@@H]1[C@@]24OO3` [Artesunate] (2.5 µM) was run?
Answer: 0

Question: Which “number of time points” value does the source give for `COc1ncc(Nc2ncc([C@@H](C)N3CCN(S(C)(=O)=O)CC3)cc2-c2nc(C)nc(N)n2)cc1F` (10 µM) here?
Answer: 0

Question: Which “number of time points” value does the source give for `COC1(C(=O)N[C@@H](C)c2ccc(-n3cc(F)cn3)nc2)CCC(c2nc(C)cc(Nc3cc(C)[nH]n3)n2)CC1` (stereo partly drawn) [trans-Pralsetinib] (2.5 µM) here?
Answer: 0

Question: For `CC(=O)NCCc1c[nH]c2ccc(O)cc12` [N-Acetyl-5-hydroxytryptamine] (10 µM), which “number of time points” value is on record?
Answer: 0

Question: With `O=[N+]([O-])c1ccc(Sc2cccc[n+]2[O-])c2nonc12` (2.5 µM) as the compound, how does the “number of time points” value read?
Answer: 0

Question: How did the “number of time points” value turn out when `COc1ccc(CNc2nc(N(CCO)CCO)nc3c2ncn3C(C)C)cc1` (2.5 µM) was run?
Answer: 0

Question: `CC(CCc1ccccn1)(CCc1ccccn1)C(=O)c1ccccc1` (10 µM) was tested. Which “number of time points” value did it give?
Answer: 0

Question: How did the “number of time points” value turn out when `[O-][n+]1cccc(-c2nc3c(Cl)cccc3cc2[C@@H](Nc2ncnc3cccnc23)C(F)(F)F)c1` [Seletalisib] (10 µM) was run?
Answer: 0

Question: With `Cc1cc2cc(Oc3ccnc(Nc4cccc(CS(=O)(=O)NCCN(C)C)c4)n3)ccc2[nH]1` [Sulfatinib] (10 µM) as the compound, how does the “number of time points” value read?
Answer: 0

Question: For `O=C1NC(=O)C(c2cnc3ccccn23)=C1c1cn2c3c(cc(F)cc13)CN(C(=O)N1CCCCC1)CC2` (2.5 µM), which “number of time points” value is on record?
Answer: 0

Question: `Cc1ccc(-c2ncn(-c3ccc(Nc4nccc(-c5cccc(N6CCOCC6)c5)n4)cc3)n2)cn1` (10 µM) was tested. Which “number of time points” value did it give?
Answer: 0

Question: Which “number of time points” value does the source give for `COc1ccc2c(c1OC)OC1c3ccc(O)cc3OCC21` (centres undefined) [Methylnissolin] (10 µM) here?
Answer: 0

Question: Which “number of time points” value does the source give for `Cn1cc(-c2ccc3nnc(C(F)(F)c4ccc5ncccc5c4)n3n2)cn1` (10 µM) here?
Answer: 0

Question: Which “number of time points” value does the source give for `Nc1ncc(-c2ccc(C(=O)N3CCNCC3)cc2)nc1-c1ccc(C(F)(F)F)cc1` (10 µM) here?
Answer: 0

Question: How did the “number of time points” value turn out when `CN(C)Cc1cccc(N=C(c2ccccc2)c2c(O)[nH]c3cc(C(=O)N(C)C)ccc23)c1` (10 µM) was run?
Answer: 0
